Reference: patent publication US20130109635A1, “Humanin Decreases Liver Fat and Visceral Fat Accumulation” (priority 2011, published 2013)

Experiments:
[1] = High fat diet (60% fat) for one month with daily injections of HNG: food intake, body weight, visceral fat, liver fat, serum lipids; type: in vivo, mice; settings: HNG 2 mg/kg daily
Protocol: (§1) The effect of humanin analog, HNG, on hepatic lipid fluxes was investigated. In the acute study, HNG was infused into third ventricle (ICV) of awake, unstressed and chronically catheterized Sprague-Dawley rats and C57BLK6 mice and studied plasma triglyceride (TG) levels following an injection of Tyloxapol (Triton WR1339, Sigma-Aldrich Corp, St. Louis, Mo.), an inhibitor of TG clearance. Groups of animals were also challenged with high fat diet (HFD) of 60% fat for one month and were treated with either daily injections of saline or of HNG (2 mg/kg). Body weight and Food intake were monitored twice a week. At the end of one month, liver fat was assessed both by histology and estimation of tissue triglycerides and plasma was collected. Total amount of visceral fat (VF) was determined and the specific depots were meticulously dissected and weighed. Tissue samples were snap-frozen for subsequent analysis.
Chronic effects of Humanin on liver lipid content: Groups of animals were challenged with high fat diet (HFD-60% fat) for one month and were treated with either daily injections of saline or HNG (2 mg/kg). At the end of one month, liver fat were assessed both by histology and estimation of tissue triglycerides.

[2] = system: triglyceride secretion from liver; assay: Acute ICV infusion of HNG with tyloxapol injection, plasma TG levels, rats; type: in vivo, Sprague-Dawley rats; settings: ICV HNG 1 μg
Protocol: as §1
Acute effects of Humanin on liver fluxes: The effect of HN was studied in acute and chronic treatment models. […]
With infusion of tyloxapol, there was a steady increase in plasma triglyceride levels in both groups from inhibition of TG clearance. […] The rate of TG secretion was calculated in the animals based on plasma triglyceride levels at 0 and 120 min time points using the following equation: secretion rate of TG/hr mg/min=(TG at 120 min−TG at 0 min)/number of hours.

[3] = HFD, end of 4 weeks, data not shown

MAPRGFSCLLLLTGEIDLPVKRRA (ANALOG OF HUMAN HUMANIN PEPTIDE) [HNG]
food intake vs control ([1]; HFD for 4 weeks, intraperitoneal): no difference
Serum TG vs control [1, 3]: tended to be higher
free fatty acids vs control [1, 3]: not significantly different
Glucose (180 min) [2]: 147 ± 8.09 mg/dL
